Assay [1] has as its system pain response in mice induced by Hot Plate. The class given is in vivo, Kunming mice. Particulars: atropine 0.5 mg/kg (im); crotoxin 44.3 μg/kg.
Assay [2] relates to acetic acid writhing response in mice. The class given is in vivo, Kunming mice.

As for `CN1[C@@H]2CC[C@H]1C[C@@H](OC(=O)C(CO)c1ccccc1)C2` (stereo partly shown) [Atropine, atropine], the “antagonism of the analgesic effects of crotoxin” value is given as “failed to antagonize” in assay [1] and “failed to antagonize” in assay [2] (atropine 10 mg/kg (ip), crotoxin 44.3 μg/kg). Moreover, in assay [2] (atropine 10 mg/kg (ip)), the “effect of atropine alone on the pain threshold” value was “no significant effect”. The “The number of writhings” value in assay [2] (crotoxin 44.3 μg·kg−1, atropine 10 mg·kg−1 or NS (i.p.) 1.5 hours after crotoxin, determined 1.5 hours after atropine) was found to be 18.60 ± 9.61 times/10 min.
